Experimental data: US10016418B2, “Compounds useful as modulators of TRPM8” (Senomyx, Inc., priority 2010, dated 2018)

Test: Cool Line Scale Test (sensory panel, 15 point line scale, WS-3 reference)
Type: in vivo, human
Method: All samples made with Low Sodium Buffer (LSB) pH ˜7.1 and contain 0.1% ethanol.
Compounds are rated on a 15 point line scale where 45 μM WS-3 (N-Ethyl-p-menthane-3-carboxamide) is ranked as a 5 in cool intensity. In most cases our compounds are tested to determine at what concentration the cooling intensity is equivalent to 45 μM WS-3. In each test, the panelist is presented with a 0 μM control sample, a 45 μM WS-3 control sample and the experimental compound sample and asked to rate the cooling intensity of each sample. Panelists are also asked to rate bitterness. In the table below there was no significant bitterness detected unless otherwise noted. Also, in the table below, n represents the number of tests completed for a given experiment (#panelists x #repetitions).
All samples were prepared with Low Sodium Buffer (LSB) pH ˜7.1 and contain 0.1% ethanol

For `CCNC(=O)C1CC(C)CCC1C(C)C` (centres unmarked) [WS-3, N-Ethyl-p-menthane-3-carboxamide, reference compound], the “Average Bitterness” value (Table 3, 45 μM WS-3 control, n = 30) was 0.3 and the “Average Bitterness” value (Table 5, 45 μM WS-3 control, n = 28) was 0.3.
With `Cc1ccc(OCC(=O)N(Cc2cccs2)c2ccn[nH]2)cc1` [Example F1, N-(1H-pyrazol-5-yl)-N-(thiophen-2-ylmethyl)-2-(p-tolyloxy)acetamide] the “Average Bitterness” value (Table 5, 3 μM in LSB, n = 28) was 0.4 and the bitter offtaste (compound at 3 μM) was “no significant bitter offtastes”.
For `Cc1c[nH]nc1N(Cc1cccs1)C(=O)COc1ccc2c(c1)CCC2` [Example B1, 2-(2,3-dihydro-1H-inden-5-yloxy)-N-(4-methyl-1H-pyrazol-3-yl)-N-(thiophen-2-ylmethyl)acetamide], the bitter offtaste (compound at 5 μM) was “(p < 0.05). There were no significant bitter offtastes in any of the”.
